Test results: the supplement of paper PMC10849652
The other results are listed elsewhere or left out.

Chains of the proteins cited; added tags and fusions are not shown. Lines headed by an entry give the natural chain unless they say otherwise; changes in a name come on top.
UniProt P49754: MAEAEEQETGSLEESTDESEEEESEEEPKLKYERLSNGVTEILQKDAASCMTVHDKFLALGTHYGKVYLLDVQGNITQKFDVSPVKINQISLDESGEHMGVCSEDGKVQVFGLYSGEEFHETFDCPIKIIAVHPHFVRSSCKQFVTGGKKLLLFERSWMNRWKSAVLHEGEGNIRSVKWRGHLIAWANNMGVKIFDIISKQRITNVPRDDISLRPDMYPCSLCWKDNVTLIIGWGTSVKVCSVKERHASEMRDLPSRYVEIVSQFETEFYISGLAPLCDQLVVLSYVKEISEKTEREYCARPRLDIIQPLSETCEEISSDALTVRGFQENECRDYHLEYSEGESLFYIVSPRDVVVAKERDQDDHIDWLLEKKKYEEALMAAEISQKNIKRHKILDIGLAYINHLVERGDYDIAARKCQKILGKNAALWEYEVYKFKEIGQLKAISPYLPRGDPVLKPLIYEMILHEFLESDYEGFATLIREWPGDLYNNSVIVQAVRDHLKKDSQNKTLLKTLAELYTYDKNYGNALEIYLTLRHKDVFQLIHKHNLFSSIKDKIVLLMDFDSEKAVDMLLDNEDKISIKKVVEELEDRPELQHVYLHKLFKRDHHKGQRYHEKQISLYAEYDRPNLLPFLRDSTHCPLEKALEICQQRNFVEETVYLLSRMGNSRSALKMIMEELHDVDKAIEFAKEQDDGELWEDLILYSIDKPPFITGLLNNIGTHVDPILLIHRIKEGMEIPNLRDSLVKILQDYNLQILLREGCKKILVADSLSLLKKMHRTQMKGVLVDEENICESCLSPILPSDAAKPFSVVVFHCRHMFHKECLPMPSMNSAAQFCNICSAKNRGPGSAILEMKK
WASHC2C, A0A096LPC5, UniProt A0A096LPC5, whole entry, looked up: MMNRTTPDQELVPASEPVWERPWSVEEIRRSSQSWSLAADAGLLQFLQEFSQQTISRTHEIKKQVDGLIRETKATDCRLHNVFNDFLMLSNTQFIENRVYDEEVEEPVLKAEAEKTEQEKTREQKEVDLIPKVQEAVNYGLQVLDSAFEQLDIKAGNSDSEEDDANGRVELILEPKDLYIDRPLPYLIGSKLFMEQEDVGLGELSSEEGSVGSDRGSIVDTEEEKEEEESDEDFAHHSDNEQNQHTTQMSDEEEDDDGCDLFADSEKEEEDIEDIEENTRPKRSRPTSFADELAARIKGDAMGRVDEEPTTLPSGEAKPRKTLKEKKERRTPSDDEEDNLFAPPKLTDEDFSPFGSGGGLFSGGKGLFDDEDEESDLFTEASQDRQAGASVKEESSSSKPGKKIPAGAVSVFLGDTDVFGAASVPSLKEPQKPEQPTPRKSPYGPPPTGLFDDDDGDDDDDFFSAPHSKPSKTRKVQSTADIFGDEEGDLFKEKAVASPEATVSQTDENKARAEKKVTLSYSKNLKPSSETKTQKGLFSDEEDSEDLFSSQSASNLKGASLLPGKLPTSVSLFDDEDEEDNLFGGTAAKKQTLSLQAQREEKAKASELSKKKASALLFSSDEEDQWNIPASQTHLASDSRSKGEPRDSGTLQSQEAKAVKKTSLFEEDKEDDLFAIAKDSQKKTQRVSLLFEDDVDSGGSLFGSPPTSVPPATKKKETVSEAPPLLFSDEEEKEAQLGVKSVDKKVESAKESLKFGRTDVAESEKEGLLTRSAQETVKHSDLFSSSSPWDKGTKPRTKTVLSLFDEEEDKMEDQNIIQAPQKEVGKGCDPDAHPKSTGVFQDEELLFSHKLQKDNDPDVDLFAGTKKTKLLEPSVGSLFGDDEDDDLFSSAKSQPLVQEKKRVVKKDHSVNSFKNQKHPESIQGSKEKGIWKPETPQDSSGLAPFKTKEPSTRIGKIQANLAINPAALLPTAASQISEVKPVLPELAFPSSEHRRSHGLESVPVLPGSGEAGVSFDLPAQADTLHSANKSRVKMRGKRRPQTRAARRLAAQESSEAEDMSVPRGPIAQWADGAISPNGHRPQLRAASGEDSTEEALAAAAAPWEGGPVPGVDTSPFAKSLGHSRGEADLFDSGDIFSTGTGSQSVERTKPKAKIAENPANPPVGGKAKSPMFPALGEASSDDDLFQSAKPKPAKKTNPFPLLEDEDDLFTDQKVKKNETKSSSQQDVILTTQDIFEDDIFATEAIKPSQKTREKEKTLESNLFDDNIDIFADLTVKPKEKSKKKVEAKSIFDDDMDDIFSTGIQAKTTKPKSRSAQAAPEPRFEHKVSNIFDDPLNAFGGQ
UniProt O15213: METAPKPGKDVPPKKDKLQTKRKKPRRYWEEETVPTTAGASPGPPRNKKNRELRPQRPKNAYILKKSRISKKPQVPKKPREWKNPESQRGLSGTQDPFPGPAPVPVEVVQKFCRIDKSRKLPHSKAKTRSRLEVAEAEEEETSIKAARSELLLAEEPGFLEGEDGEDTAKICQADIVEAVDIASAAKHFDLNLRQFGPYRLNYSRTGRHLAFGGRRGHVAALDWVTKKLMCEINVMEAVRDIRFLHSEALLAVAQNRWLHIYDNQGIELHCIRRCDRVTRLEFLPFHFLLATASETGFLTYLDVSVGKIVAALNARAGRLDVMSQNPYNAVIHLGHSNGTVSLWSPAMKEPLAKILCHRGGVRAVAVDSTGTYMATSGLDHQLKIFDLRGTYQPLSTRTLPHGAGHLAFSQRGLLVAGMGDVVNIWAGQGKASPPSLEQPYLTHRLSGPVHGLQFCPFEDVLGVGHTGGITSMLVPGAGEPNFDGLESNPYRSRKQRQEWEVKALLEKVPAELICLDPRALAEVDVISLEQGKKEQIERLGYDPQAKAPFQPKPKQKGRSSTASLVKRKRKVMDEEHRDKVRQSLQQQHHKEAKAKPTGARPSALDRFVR
UniProt Q8N1B4: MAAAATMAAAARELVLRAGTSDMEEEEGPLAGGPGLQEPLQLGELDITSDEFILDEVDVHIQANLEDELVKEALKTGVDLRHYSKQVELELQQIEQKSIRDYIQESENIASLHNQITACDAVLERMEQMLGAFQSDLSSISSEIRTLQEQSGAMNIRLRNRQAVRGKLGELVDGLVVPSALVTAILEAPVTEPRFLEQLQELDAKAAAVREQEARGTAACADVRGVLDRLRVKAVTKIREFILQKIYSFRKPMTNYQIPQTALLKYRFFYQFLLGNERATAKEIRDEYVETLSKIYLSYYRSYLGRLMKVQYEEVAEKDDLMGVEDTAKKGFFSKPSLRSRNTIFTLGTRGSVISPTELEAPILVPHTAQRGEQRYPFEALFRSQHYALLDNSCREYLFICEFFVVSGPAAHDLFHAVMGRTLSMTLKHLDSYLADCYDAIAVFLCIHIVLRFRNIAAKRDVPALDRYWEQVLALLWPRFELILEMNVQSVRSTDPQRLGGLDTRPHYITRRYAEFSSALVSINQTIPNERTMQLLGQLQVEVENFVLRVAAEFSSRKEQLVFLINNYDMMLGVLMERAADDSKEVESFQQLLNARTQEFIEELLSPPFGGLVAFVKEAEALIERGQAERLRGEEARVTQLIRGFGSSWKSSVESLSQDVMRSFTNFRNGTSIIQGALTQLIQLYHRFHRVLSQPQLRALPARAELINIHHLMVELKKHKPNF
UniProt Q86Y07: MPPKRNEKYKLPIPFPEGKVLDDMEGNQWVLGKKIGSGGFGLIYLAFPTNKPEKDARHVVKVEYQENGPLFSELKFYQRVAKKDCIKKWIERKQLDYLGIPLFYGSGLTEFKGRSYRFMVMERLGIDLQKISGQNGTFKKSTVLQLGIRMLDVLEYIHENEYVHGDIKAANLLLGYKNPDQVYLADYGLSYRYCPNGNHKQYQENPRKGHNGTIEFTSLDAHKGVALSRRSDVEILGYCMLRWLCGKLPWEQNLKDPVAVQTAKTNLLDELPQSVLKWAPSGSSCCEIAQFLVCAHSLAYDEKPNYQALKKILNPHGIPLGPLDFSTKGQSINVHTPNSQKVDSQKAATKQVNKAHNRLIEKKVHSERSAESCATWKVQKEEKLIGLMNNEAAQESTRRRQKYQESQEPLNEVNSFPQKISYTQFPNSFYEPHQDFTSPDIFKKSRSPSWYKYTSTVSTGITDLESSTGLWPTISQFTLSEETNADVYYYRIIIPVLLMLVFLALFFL
UniProt Q3ZAQ7: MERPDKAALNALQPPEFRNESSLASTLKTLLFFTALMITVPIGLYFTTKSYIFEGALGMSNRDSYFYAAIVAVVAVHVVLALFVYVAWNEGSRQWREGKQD
UniProt Q9C0J8: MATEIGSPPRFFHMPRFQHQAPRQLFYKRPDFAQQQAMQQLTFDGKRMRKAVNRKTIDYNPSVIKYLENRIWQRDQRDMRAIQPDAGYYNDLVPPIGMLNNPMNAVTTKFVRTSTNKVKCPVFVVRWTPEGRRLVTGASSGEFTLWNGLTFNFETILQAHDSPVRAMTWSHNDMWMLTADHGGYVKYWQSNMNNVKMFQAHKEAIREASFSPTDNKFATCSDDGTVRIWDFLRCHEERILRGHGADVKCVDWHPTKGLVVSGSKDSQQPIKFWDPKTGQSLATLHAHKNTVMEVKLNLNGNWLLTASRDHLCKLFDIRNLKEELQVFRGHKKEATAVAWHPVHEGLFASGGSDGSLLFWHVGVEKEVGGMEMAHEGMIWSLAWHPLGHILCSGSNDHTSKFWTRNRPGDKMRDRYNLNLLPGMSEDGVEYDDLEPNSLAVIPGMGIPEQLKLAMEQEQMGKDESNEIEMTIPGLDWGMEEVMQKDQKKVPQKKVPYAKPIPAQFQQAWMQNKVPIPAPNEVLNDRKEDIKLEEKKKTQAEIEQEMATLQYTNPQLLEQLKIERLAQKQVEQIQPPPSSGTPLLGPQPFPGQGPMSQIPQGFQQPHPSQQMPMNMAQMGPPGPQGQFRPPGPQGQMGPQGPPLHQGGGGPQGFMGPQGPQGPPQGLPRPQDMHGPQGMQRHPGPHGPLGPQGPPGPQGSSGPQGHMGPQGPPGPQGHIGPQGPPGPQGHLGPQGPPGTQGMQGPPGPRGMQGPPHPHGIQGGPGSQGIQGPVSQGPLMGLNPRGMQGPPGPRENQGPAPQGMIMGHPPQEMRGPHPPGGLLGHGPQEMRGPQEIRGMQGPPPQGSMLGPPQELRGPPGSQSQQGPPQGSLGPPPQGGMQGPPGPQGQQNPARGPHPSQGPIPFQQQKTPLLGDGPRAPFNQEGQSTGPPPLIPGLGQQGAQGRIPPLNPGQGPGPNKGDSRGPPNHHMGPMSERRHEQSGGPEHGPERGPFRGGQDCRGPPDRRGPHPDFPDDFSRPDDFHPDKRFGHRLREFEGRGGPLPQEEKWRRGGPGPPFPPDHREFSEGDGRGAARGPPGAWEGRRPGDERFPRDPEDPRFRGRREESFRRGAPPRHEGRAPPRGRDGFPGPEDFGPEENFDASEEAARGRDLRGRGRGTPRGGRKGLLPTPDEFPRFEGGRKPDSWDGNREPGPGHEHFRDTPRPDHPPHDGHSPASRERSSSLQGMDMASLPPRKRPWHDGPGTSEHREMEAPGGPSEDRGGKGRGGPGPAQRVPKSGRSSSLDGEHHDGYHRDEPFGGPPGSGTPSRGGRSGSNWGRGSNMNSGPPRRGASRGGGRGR

Key:
Experiment in all cases: log2 fold change, soluble protein after heating vs DMSO (PISA); higher = thermal stabilisation; K562 cells, 10 uM, 30 min; active = over 0.2 and 3.5 SD of the protein, either way, in both replicates (recomputed)
[1] = compound: CC[C@@H]1C(=O)N(C)c2cnc(Nc3ccc(C(=O)NC4CCN(C)CC4)cc3OC)nc2N1C1CCCC1
In short: (§1)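 Values are thermal stability changes relative to control samples and are taken from duplicates. They are stated as log2 fold changes. Before quantification by TMTpro 16plex LC-MS/MS with equalised channel sums, K562 cells at 2×10^6 cells/mL were treated with 10 μM compound for 30 min, heated in aliquots for 3 min across 48°C-58°C, pooled, extracted in PBS with 0.5% NP-40 at 4°C, and centrifuged at 21,000xg for 90 min to give the soluble supernatant.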

[2] = compound: CC[C@@H]1C(=O)N(C)c2cnc(Nc3ccc(C(=O)N[C@H]4CC[C@H](N5CCN(CC6CC6)CC5)CC4)cc3OC)nc2N1C(C)C [volasertib]
In short: as §1

[3] = compound: CC[C@H](C)N1C=C(C2=C(C=C(C=C21)C3=CN=C(C=C3)N4CCNCC4)C(=O)NCC5=C(C=C(NC5=O)C)C)C
In short: as §1

[4] = compound: CC[C@H](C)[C@@H](C(=O)N[C@@H]([C@@H](C)O)C(=O)N[C@@H](CC(C)C)C(=O)[C@]1(CO1)C)NC(=O)[C@H]([C@@H](C)CC)N(C)C(=O)C [epoxomicin]
In short: as §1

[5] = compound: CCn1c(C(=O)N(C2CC2)C2CC2)cc2c3c(ncn3C)c(Nc3cc(C)n(C)n3)nc21
In short: as §1

[6] = compound: CCn1cc(-c2ccnc3[nH]c(-c4cccc(CN(C)C)c4)cc23)c(-c2ccc(NC(=O)N(C)C)cc2)n1
In short: as §1

[7] = compound: CN(C)CC(=O)Nc1ccc2[nH]c(=O)c3ccccc3c2c1
In short: as §1

[8] = compound: CN(CCOC1=CC=C(C=C1)C[C@H]2C(=O)NC(=O)S2)C3=CC=CC=N3 (racemic) [rosiglitazone]
In short: as §1

[9] = compound: CN1C2=C(C3=C1C(=O)N(N=C3)CC4=CC(=CC=C4)N)SC(=C2)S(=O)C
In short: as §1

[10] = compound: CN1CCC(CNc2ccc3ncc(-c4cccc(OC(F)(F)F)c4)n3n2)CC1
In short: as §1

[11] = compound: CN1CCN(CCOc2cc(OC3CCOCC3)c3c(Nc4c(Cl)ccc5c4OCO5)ncnc3c2)CC1 [saracatinib]
In short: as §1

[12] = compound: CN1CCN(c2nc(C3=C(c4c[nH]c5ccccc45)C(=O)NC3=O)c3ccccc3n2)CC1 [sotrastaurin]
In short: as §1

[13] = compound: CN1CC[C@H](c2c(O)cc(O)c3c(=O)cc(-c4ccccc4Cl)oc23)[C@H](O)C1 [alvocidib]
In short: as §1

[14] = compound: CN1CCc2c(c3ccccc3n2Cc2ccc(C(=O)NO)cc2)C1 [Tubastatin A]
In short: as §1

[15] = compound: CNC(=O)C1=CC=CC=C1NC2=NC(=NC=C2Cl)NC3=C(C=C(C=C3)N4CCOCC4)OC
In short: as §1

[16] = compound: CNC(=O)c1ccc(Nc2ncc(C(F)(F)F)c(NCc3nccnc3N(C)S(C)(=O)=O)n2)cc1 [defactinib]
In short: as §1

[17] = compound: CNCc1ccc(-c2[nH]c3cc(F)cc4c3c2CCNC4=O)cc1 [rucaparib]
In short: as §1

[18] = compound: CNc1nc(-c2ccc3c(N)n[nH]c3c2)cc(N2C[C@@H](C(=O)NC3CCCCC3)CC[C@H]2C)n1
In short: as §1

[19] = compound: COC(=O)N[C@@H](C)CNc1nccc(-c2cn(C(C)C)nc2-c2cc(Cl)cc(NS(C)(=O)=O)c2F)n1 [encorafenib]
In short: as §1

[20] = compound: COC(=O)[C@H](CCSC)NC(=O)C1=C(C=C(C=C1)NC[C@H](CS)N)C2=CC=CC=C2
In short: as §1

Measured: log2 fold change

WBP11 (UniProt Q9Y2W2)
inactive: [1] 0.012 | [2] -0.013 | [3] -0.024 | [4] 0 | [5] 0.006 | [6] -0.009 | [7] -0.03 | [8] -0.002 | [9] -0.027 | [10] 0.094 | [11] 0.068 | [12] 0.038 | [13] 0.023 | [14] -0.024 | [15] -0.046 | [16] 0.035 | [17] 0.014 | [18] -0.018 | [19] -0.014 | [20] 0.046

WDR73 (UniProt Q6P4I2)
inactive: [1] 0.058 | [2] 0.021 | [3] 0 | [4] 0.002 | [5] -0.016 | [6] -0.026 | [7] -0.021 | [8] 0.019 | [9] -0.061 | [10] 0.067 | [11] 0.01 | [12] 0.029 | [13] -0.021 | [14] -0.02 | [15] -0.023 | [16] -0.042 | [17] -0.037 | [18] -0.019 | [19] -0.063 | [20] 0.006

VPS41 (UniProt P49754)
active: [10] -0.25
inactive: [1] -0.214 | [2] -0.309 | [3] 0.02 | [4] -0.038 | [6] -0.106 | [7] -0.004 | [9] 0.054 | [11] -0.02 | [12] -0.077 | [14] 0.034 | [15] -0.055 | [16] -0.041 | [17] 0.023 | [18] -0.001 | [19] -0.011 | [20] 0.103

VDAC1 (UniProt P21796)
inactive: [1] 0.019 | [2] 0.063 | [3] -0.013 | [4] 0.012 | [6] -0.009 | [7] -0.005 | [9] -0.022 | [10] 0.055 | [11] 0.074 | [12] 0.035 | [14] -0.014 | [15] 0.011 | [16] 0.005 | [17] -0.022 | [18] -0.026 | [19] -0.03 | [20] 0.014

WASHC2C, A0A096LPC5
active: [10] -0.507
inactive: [1] 0.034 | [2] -0.111 | [3] -0.03 | [4] -0.016 | [6] -0.132 | [7] 0.012 | [9] 0.142 | [11] -0.116 | [12] -0.09 | [14] -0.02 | [15] -0.019 | [16] -0.121 | [17] 0.114 | [18] -0.02 | [19] 0.035 | [20] 0.052

WNK1 isoform 7 (UniProt Q9H4A3)
inactive: [1] -0.021 | [2] -0.01 | [3] 0.04 | [4] 0.013 | [6] -0.005 | [7] 0.005 | [9] -0.001 | [10] 0.019 | [11] 0.022 | [12] 0.003 | [14] -0.005 | [15] -0.047 | [16] 0.003 | [17] 0.013 | [18] -0.035 | [19] 0.012 | [20] 0.006

WDR46 (UniProt O15213)
inactive: [1] 0.195 | [2] 0.073 | [3] -0.085 | [4] -0.417 | [6] 0.288 | [7] -0.2 | [9] 0.311 | [10] 0.389 | [11] -0.095 | [12] 0.003 | [14] 0.101 | [15] 0.101 | [16] 0.39 | [17] 0.289 | [18] 0.084 | [19] 0.128 | [20] -0.015

VPS35L (UniProt Q7Z3J2)
active: [2] -0.365
inactive: [1] 0.021 | [3] -0.038 | [4] 0.003 | [6] 0.071 | [7] 0.005 | [9] -0.076 | [10] -0.099 | [11] 0.013 | [12] -0.141 | [14] -0.015 | [15] -0.016 | [16] -0.081 | [17] 0.018 | [18] 0.045 | [19] -0.001 | [20] -0.037

VPS8 (UniProt Q8N3P4)
inactive: [1] -0.087 | [3] 0.079 | [4] -0.015 | [6] -0.038 | [7] 0.001 | [9] -0.023 | [11] -0.009 | [12] -0.096 | [14] 0.09 | [15] 0.002 | [16] -0.171 | [17] 0.023 | [18] -0.015 | [19] 0.093 | [20] -0.078
active: [2] -0.647 | [10] -0.332

WDR43 (UniProt Q15061)
inactive: [1] 0.029 | [2] -0.029 | [3] -0.04 | [4] -0.026 | [6] 0.036 | [7] 0.004 | [9] -0.04 | [10] 0.192 | [11] 0.031 | [12] 0.014 | [14] -0.045 | [15] 0.001 | [16] 0.101 | [17] 0.07 | [18] -0.002 | [19] -0.009 | [20] -0.007

VPS52 (UniProt Q8N1B4)
inactive: [1] -0.107 | [3] 0.153 | [4] 0.092 | [6] 0.006 | [7] -0.021 | [9] 0.037 | [10] -0.027 | [11] -0.012 | [12] -0.107 | [14] 0.074 | [15] -0.047 | [16] -0.031 | [17] 0.121 | [18] -0.01 | [19] 0.02 | [20] -0.072
active: [2] -0.383

WASH2P (UniProt Q6VEQ5)
inactive: [1] -0.071 | [2] -0.163 | [3] 0.024 | [4] 0 | [6] 0.037 | [7] 0.021 | [9] 0.012 | [10] -0.067 | [11] 0.009 | [12] -0.08 | [14] -0.059 | [15] 0.02 | [16] -0.004 | [17] -0.011 | [18] -0.037 | [19] 0.004 | [20] 0.007

WARS2 (UniProt Q9UGM6)
active: [2] -0.323
inactive: [1] -0.07 | [3] 0.099 | [4] 0.016 | [6] -0.03 | [7] 0.043 | [9] -0.055 | [10] -0.099 | [11] -0.037 | [12] 0.014 | [14] -0.04 | [15] 0.018 | [16] -0.065 | [17] 0.04 | [18] 0.006 | [19] -0.011 | [20] -0.057

VRK2 (UniProt Q86Y07)
inactive: [1] 0.034 | [2] -0.049 | [3] 0.054 | [4] 0.021 | [6] -0.005 | [7] -0.009 | [9] -0.04 | [11] -0.036 | [12] 0.075 | [14] 0.014 | [15] -0.102 | [16] 0.106 | [17] -0.039 | [18] -0.017 | [19] -0.001 | [20] -0.092
active: [10] 0.229 | [13] 0.4

VMA21 isoform 2 (UniProt Q3ZAQ7)
inactive: [1] 0.168 | [2] -0.055 | [3] 0 | [4] 0.108 | [5] 0.055 | [6] 0.004 | [8] -0.021 | [9] -0.017 | [10] 0.319 | [11] 0.19 | [13] 0.078 | [14] 0.005 | [15] 0.02 | [17] -0.056 | [18] 0.207 | [19] -0.019

VPS11 (UniProt Q9H270)
active: [1] -0.284 | [2] -0.53
inactive: [3] 0.14 | [4] 0.025 | [6] -0.074 | [7] 0.059 | [9] 0.03 | [10] -0.244 | [11] -0.003 | [12] -0.08 | [14] 0.004 | [15] -0.018 | [16] -0.066 | [17] 0.082 | [18] -0.021 | [19] 0.023 | [20] -0.01

WDR33 (UniProt Q9C0J8)
inactive: [1] -0.027 | [2] 0.143 | [3] -0.033 | [4] 0.257 | [5] 0.034 | [7] -0.066 | [8] 0.009 | [12] -0.009 | [13] 0.098 | [14] 0.083 | [15] 0.132 | [16] 0.126 | [17] 0.074 | [19] 0.05 | [20] 0.007

WRB (UniProt O00258)
inactive: [1] 0.011 | [2] 0.057 | [3] -0.071 | [4] -0.059 | [6] -0.02 | [7] -0.024 | [9] 0.029 | [10] -0.016 | [11] -0.007 | [12] 0.075 | [14] -0.051 | [15] -0.048 | [16] 0.073 | [17] -0.003 | [18] -0.014 | [19] -0.057 | [20] 0.023

Five neighbouring records already listed:
WDR43 (UniProt Q15061)
inactive: [1] 0.029 | [2] -0.029 | [3] -0.04 | [4] -0.026 | [6] 0.036 | [7] 0.004 | [9] -0.04 | [10] 0.192 | [11] 0.031 | [12] 0.014 | [14] -0.045 | [15] 0.001 | [16] 0.101 | [17] 0.07 | [18] -0.002 | [19] -0.009 | [20] -0.007

VPS52 (UniProt Q8N1B4)
inactive: [1] -0.107 | [3] 0.153 | [4] 0.092 | [6] 0.006 | [7] -0.021 | [9] 0.037 | [10] -0.027 | [11] -0.012 | [12] -0.107 | [14] 0.074 | [15] -0.047 | [16] -0.031 | [17] 0.121 | [18] -0.01 | [19] 0.02 | [20] -0.072
active: [2] -0.383

WASH2P (UniProt Q6VEQ5)
inactive: [1] -0.071 | [2] -0.163 | [3] 0.024 | [4] 0 | [6] 0.037 | [7] 0.021 | [9] 0.012 | [10] -0.067 | [11] 0.009 | [12] -0.08 | [14] -0.059 | [15] 0.02 | [16] -0.004 | [17] -0.011 | [18] -0.037 | [19] 0.004 | [20] 0.007

WARS2 (UniProt Q9UGM6)
active: [2] -0.323
inactive: [1] -0.07 | [3] 0.099 | [4] 0.016 | [6] -0.03 | [7] 0.043 | [9] -0.055 | [10] -0.099 | [11] -0.037 | [12] 0.014 | [14] -0.04 | [15] 0.018 | [16] -0.065 | [17] 0.04 | [18] 0.006 | [19] -0.011 | [20] -0.057

VRK2 (UniProt Q86Y07)
inactive: [1] 0.034 | [2] -0.049 | [3] 0.054 | [4] 0.021 | [6] -0.005 | [7] -0.009 | [9] -0.04 | [11] -0.036 | [12] 0.075 | [14] 0.014 | [15] -0.102 | [16] 0.106 | [17] -0.039 | [18] -0.017 | [19] -0.001 | [20] -0.092
active: [10] 0.229 | [13] 0.4
